Test results as given in publication PMC12137164.
Results are given in words; binding and its absence hold for the method and conditions named. In cells and extracts the contact can be indirect. Some entries that bind do so weakly or less than the wild type.

The chains behind the UniProt entries cited, without tags or fusion partners.
UniProt Q9UKL0: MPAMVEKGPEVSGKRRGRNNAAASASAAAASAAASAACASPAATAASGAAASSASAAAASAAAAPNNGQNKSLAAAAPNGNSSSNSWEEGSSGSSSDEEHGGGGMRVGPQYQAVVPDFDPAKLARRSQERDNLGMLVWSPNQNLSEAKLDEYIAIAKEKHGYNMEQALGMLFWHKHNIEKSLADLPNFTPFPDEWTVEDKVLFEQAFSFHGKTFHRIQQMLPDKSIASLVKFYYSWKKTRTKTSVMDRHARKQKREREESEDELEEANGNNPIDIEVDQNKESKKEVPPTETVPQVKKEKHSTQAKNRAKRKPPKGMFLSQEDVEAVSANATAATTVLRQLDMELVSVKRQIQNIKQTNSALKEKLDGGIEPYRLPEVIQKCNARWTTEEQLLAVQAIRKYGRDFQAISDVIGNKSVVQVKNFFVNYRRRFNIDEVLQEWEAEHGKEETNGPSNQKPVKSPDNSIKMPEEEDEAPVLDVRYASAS

Target: T1, hexokinase domain-containing protein 1 (HKDC1) (human (endogenous in SW620 and DLD1)) (UniProt Q2TB90)
T1 sequence: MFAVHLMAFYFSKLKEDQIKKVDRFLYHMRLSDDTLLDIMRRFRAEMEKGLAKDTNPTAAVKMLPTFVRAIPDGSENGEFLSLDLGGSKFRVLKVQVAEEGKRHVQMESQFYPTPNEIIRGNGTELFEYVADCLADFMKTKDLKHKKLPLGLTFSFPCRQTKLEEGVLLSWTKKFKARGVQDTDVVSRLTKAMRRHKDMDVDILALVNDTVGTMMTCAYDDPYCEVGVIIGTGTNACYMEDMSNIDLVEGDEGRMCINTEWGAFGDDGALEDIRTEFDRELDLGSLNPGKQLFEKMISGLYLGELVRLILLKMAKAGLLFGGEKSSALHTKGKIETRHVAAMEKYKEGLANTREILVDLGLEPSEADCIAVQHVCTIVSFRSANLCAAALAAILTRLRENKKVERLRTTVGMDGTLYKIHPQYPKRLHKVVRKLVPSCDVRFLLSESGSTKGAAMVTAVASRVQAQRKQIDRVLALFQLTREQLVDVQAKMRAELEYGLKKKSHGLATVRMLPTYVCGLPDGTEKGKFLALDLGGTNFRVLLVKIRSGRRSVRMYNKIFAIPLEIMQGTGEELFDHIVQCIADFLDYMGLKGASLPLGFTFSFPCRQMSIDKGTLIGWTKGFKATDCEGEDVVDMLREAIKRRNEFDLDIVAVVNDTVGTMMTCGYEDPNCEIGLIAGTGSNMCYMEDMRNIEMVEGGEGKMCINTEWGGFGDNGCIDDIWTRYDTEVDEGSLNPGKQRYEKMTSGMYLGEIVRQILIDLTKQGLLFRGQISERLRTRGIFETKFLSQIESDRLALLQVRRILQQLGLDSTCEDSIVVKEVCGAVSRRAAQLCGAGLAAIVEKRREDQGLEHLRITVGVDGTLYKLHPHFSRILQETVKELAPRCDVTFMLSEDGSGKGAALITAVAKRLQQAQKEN
Assay: co-IP; SW620 and DLD1 lysates (RIPA with PMSF) incubated with anti-HKDC1 or anti-RCOR1 antibodies, then Protein A/G magnetic beads; SDS-PAGE and Western blot

binding: binds
Substance: REST Corepressor 1 (RCOR1) (from UniProt Q9UKL0 1-485)
